ChEMBL document CHEMBL4825757, “Optimization of 4,6-Disubstituted Pyrido[3,2-d]pyrimidines as Dual MNK/PIM Inhibitors to Inhibit Leukemia Cell Growth” (J Med Chem, 2021)

Assay: Metabolic stability in human liver microsomes assessed as half life preincubated for 10 mins followed by NADPH addition and further incubated upto 60 mins by LC-MS/MS analysis
Type: ADME, Microsome
Conditions: time <=70 min

Cc1ncc2n1-c1ccc(Cl)cc1C(c1ccccc1F)=NC2 [MIDAZOLAM]
half-life: 7.95 min
